Paper PMC10716376, “The assembly of the Mitochondrial Complex I Assembly complex uncovers a redox pathway coordination” (Nature Communications, 2023)
No constants are given. Whether binding was seen depends on the method and setting.

Molecular target: T1, VLCADWT (very long chain acyl-CoA dehydrogenase, res. 72-655) (human) (UniProt P49748)
T1 sequence: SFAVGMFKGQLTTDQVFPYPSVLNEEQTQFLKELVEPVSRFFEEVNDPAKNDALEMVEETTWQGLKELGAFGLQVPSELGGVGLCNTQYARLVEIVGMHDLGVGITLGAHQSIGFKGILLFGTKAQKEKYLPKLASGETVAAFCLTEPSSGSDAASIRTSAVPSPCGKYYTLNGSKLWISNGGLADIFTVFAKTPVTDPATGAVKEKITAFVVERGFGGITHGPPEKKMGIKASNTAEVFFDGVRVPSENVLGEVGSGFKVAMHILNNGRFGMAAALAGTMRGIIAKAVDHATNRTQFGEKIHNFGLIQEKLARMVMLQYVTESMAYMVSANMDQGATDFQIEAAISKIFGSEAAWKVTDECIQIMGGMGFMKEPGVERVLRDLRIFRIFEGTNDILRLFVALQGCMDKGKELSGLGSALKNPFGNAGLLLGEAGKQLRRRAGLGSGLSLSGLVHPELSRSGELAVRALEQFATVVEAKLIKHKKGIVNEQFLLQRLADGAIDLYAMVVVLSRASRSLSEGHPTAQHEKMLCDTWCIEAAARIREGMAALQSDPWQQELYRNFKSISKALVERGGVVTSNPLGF
Test: mass photometry; ACAD9 (or VLCAD) at 20-50 nM in 25 mM HEPES pH 7.5, 250 mM NaCl, or diluted in 4.8 uM ECSIT solution for complex formation; both purified

B1: ECSIT_(CTER) (residues 221-431) (domain or fragment, human, UniProt Q9BQ95 221-431, looked up)
chain: QDPVELAMFGLRHMEPDLSARVTIYQVPLPKDSTGAADPPQPHIVGIQSPDQQAALARHNPARPVFVEGPFSLWLRNKCVYYHILRADLLPPEEREVEETPEEWNLYYPMQLDLEYVRSGWDNYEFDINEVEEGPVFAMCMAGAHDQATMAKWIQGLQETNPTLAQIPVVFRLAGSTRELQTSSAGLEEPPLPEDHQEEDDNLQRQQQGQS
notes: human ECSIT, residues 221-431; E. coli codon-optimised synthetic gene; Only residues 320-334 are modelled in the cryo-EM map; Plasmid details are in Supplementary Data 1; also called C-terminal ECSIT; source: E. coli BL21 Star (DE3), purified (HisTrap, SEC)
  binding: no binding (tested: 4.8 uM ECSIT solution)
